The target in this assay is endogenous PRPS2 (human (endogenous in PC9 and H1792)) (UniProt P11908). Put plainly: co-IP; endogenous proteins in PC9 and H1792 whole-cell extracts; anti-PRPS2 or normal rabbit IgG overnight, Protein G Plus/Protein A-Agarose; Western blot.

Chains of the proteins cited; added tags and fusions are not shown. Lines headed by an entry give the natural chain unless they say otherwise; changes in a name come on top.
UniProt P11908: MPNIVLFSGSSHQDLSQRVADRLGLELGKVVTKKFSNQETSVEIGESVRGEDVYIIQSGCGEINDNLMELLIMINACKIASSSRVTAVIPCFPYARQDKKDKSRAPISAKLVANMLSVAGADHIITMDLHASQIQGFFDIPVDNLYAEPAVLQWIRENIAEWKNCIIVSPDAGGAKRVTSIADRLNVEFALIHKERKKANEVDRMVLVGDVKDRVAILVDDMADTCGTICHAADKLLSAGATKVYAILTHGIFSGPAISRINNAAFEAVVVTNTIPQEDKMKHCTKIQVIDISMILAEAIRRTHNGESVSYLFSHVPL
UniProt P31153: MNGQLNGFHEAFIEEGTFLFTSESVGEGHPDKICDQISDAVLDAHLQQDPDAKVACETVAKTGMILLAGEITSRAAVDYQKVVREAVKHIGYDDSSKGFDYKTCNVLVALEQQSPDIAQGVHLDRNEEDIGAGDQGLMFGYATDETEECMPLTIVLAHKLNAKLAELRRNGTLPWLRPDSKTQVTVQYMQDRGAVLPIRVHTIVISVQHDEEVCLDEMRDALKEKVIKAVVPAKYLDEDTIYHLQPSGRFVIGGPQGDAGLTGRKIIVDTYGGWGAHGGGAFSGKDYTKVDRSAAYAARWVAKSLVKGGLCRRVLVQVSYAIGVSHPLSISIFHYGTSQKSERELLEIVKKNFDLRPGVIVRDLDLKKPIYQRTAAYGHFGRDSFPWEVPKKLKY

No constants are given. Whether binding was seen depends on the method and setting. Binding seen in cells or lysates may run through a third protein. A result given as binding can be weak or reduced; the word gives no strength.

This is an account of results in paper PMC12037730 (Nature Communications, 2025).

Regarding “endogenous MAT2A (methionine adenosyltransferase 2A) (from UniProt P31153 1-395) (enzyme)”, the binding entry was “binds”.
